Laboratory results: the supplement of paper PMC10060354, “Discovery of a small molecule ligand of FRS2 that inhibits invasion and tumor growth” (Cellular Oncology, 2022)
Repeats are few or missing, and single values can be far off.

By UniProt entry, the sequences of proteins in these tests, tags left out. Where a name states a change or a piece, a line headed by the entry shows the natural chain unless it says otherwise.
UniProt Q13049: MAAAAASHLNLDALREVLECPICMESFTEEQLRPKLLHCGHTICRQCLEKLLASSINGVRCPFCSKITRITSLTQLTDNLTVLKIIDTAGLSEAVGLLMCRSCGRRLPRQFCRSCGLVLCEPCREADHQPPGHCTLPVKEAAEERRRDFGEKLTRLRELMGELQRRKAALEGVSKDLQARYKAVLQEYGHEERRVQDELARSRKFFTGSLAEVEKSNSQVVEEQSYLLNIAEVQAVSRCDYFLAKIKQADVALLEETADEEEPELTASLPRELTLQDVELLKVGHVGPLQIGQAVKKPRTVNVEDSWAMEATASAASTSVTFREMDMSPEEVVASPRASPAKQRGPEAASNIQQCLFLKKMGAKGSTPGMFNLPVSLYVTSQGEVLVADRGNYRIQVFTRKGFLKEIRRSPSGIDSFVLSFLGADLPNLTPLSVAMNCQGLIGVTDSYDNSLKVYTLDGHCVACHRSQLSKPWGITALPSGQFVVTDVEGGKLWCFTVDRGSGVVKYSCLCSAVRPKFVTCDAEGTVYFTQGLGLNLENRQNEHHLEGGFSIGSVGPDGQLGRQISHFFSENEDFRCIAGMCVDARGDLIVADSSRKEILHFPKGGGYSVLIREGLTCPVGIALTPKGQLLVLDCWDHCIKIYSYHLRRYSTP
UniProt P08069, whole entry, looked up: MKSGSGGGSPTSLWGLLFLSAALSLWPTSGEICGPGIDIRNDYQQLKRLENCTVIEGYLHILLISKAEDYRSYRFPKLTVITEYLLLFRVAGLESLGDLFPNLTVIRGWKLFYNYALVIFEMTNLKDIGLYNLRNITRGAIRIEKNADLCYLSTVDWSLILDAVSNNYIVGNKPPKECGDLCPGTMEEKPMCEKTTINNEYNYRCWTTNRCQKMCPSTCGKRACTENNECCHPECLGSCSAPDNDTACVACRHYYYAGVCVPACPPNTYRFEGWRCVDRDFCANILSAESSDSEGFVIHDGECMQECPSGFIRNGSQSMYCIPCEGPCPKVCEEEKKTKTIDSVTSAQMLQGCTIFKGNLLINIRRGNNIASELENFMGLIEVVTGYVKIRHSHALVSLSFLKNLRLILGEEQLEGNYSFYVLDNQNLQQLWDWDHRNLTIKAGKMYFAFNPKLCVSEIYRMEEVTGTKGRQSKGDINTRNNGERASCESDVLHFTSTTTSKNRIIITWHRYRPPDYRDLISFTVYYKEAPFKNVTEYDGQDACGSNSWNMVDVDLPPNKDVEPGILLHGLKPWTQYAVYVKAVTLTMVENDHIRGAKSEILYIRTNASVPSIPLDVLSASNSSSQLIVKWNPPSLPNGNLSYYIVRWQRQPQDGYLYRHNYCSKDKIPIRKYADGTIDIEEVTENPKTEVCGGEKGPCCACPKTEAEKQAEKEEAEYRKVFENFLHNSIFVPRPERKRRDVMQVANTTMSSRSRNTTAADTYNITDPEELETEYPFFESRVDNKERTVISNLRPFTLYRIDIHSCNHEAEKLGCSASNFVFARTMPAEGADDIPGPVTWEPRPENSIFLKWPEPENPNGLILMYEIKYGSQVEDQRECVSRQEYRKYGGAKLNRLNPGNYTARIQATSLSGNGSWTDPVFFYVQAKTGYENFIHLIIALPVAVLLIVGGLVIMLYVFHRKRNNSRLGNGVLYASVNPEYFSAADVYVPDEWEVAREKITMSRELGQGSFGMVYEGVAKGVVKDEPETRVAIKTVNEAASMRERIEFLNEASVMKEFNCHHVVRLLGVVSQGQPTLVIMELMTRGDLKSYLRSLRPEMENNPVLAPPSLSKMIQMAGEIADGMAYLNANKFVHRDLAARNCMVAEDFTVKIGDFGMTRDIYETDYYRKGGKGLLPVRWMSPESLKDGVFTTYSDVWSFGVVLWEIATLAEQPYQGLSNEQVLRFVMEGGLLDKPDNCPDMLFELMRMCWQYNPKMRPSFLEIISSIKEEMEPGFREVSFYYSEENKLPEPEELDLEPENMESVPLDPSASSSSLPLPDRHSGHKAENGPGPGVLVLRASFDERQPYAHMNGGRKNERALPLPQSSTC
UniProt Q9Y5E7: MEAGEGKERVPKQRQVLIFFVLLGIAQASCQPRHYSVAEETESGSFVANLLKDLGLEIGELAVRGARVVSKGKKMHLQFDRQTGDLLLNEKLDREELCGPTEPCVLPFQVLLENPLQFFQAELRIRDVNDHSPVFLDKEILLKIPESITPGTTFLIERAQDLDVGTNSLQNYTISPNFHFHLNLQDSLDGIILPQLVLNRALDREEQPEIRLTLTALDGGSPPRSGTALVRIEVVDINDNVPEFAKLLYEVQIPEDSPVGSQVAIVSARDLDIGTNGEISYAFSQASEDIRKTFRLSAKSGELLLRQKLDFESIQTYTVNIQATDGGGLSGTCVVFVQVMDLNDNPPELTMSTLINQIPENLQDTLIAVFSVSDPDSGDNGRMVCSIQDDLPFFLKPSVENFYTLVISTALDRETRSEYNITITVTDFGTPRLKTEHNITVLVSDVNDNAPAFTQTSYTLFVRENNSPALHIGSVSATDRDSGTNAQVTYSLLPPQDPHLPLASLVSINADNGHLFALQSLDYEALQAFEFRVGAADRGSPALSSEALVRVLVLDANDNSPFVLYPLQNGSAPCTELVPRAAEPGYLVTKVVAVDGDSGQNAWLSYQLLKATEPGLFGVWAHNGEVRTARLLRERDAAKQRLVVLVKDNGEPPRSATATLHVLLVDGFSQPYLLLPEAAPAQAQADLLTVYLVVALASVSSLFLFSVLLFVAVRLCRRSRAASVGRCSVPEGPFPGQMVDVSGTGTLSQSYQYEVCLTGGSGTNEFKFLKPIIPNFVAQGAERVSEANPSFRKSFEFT
UniProt Q9NSY0: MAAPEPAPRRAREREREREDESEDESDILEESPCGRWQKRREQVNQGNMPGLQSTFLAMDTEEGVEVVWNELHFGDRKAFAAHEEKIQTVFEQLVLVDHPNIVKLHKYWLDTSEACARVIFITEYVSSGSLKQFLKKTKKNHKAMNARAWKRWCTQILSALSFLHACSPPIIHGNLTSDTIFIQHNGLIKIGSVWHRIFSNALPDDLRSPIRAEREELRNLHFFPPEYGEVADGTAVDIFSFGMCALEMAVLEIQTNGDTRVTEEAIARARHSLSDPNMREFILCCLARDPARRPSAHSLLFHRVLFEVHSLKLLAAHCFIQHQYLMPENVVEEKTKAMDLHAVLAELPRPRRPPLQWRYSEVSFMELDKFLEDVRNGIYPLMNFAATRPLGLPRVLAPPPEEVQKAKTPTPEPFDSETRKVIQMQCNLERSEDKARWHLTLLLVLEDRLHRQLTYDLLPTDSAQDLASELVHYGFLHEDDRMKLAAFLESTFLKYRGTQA
UniProt P35226: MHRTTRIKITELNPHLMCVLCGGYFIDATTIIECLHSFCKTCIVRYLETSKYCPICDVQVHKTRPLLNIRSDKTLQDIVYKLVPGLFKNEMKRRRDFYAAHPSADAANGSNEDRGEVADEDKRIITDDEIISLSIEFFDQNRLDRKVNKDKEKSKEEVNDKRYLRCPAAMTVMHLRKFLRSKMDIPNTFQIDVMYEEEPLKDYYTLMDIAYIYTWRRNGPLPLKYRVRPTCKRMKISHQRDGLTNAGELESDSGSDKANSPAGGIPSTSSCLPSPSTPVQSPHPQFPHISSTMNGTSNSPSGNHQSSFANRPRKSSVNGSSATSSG
UniProt O95070: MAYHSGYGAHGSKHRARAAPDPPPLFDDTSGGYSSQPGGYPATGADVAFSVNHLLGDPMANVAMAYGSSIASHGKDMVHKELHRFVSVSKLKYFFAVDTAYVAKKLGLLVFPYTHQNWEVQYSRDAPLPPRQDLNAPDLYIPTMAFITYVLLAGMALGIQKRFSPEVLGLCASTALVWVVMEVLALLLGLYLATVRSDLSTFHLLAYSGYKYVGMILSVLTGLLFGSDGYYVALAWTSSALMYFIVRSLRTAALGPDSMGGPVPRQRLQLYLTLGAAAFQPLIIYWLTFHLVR
UniProt Q92834: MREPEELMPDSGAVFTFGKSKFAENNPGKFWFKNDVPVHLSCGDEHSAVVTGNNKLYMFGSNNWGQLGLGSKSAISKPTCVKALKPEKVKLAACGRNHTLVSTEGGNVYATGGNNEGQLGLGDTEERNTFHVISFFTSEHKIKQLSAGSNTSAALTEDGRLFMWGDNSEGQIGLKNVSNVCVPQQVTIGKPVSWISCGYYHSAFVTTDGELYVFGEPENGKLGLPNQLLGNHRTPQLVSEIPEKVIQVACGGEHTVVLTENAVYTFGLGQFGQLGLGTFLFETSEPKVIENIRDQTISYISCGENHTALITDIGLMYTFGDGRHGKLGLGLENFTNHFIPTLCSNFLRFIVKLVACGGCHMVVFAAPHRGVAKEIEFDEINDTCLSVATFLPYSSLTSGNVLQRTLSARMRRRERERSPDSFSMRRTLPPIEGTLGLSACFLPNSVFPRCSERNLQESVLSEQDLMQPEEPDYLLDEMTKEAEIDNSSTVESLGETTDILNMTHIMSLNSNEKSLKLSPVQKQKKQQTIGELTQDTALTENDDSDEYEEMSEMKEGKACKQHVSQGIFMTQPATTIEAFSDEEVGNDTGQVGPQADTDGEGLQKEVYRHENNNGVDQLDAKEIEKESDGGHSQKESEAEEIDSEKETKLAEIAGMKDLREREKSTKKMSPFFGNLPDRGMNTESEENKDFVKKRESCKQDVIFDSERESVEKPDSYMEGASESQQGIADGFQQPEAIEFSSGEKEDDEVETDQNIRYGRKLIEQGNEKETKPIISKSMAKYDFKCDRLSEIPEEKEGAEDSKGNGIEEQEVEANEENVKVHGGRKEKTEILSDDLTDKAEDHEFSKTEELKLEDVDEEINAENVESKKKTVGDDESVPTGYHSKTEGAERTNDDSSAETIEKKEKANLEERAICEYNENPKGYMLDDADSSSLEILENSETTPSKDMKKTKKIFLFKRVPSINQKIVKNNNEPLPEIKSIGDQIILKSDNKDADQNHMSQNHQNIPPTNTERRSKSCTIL
UniProt P36404: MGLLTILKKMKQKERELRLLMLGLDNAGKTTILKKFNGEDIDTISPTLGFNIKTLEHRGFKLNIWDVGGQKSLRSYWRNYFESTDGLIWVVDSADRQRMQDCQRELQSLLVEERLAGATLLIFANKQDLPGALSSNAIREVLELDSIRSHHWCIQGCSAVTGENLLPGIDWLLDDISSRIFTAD
UniProt Q99633: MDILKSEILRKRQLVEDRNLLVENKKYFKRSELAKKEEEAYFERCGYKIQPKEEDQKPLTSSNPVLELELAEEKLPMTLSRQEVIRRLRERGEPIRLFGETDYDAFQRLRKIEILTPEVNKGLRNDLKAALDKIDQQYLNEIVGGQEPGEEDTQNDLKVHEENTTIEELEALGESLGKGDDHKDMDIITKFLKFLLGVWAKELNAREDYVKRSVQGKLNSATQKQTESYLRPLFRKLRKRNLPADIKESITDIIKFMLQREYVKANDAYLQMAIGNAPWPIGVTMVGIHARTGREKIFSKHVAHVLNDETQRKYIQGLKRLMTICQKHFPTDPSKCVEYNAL
UniProt O43813, whole entry: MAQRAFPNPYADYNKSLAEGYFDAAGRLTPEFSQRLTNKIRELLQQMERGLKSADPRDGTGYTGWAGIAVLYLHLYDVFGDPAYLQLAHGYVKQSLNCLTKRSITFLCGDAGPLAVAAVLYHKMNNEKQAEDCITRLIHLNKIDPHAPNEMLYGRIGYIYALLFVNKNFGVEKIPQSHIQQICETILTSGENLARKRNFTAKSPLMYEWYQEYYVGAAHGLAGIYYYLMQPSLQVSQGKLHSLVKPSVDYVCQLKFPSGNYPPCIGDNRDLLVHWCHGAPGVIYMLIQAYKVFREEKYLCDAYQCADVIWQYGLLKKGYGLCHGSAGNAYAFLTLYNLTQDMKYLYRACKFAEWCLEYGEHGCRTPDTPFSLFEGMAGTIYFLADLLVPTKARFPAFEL
UniProt Q01081: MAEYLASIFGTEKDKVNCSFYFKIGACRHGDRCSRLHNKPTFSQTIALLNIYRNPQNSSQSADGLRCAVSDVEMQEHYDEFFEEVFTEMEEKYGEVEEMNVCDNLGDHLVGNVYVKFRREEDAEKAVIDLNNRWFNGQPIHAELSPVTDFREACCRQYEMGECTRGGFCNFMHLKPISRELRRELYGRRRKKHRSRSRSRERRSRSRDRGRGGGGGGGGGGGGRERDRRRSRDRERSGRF
UniProt Q9NYB0: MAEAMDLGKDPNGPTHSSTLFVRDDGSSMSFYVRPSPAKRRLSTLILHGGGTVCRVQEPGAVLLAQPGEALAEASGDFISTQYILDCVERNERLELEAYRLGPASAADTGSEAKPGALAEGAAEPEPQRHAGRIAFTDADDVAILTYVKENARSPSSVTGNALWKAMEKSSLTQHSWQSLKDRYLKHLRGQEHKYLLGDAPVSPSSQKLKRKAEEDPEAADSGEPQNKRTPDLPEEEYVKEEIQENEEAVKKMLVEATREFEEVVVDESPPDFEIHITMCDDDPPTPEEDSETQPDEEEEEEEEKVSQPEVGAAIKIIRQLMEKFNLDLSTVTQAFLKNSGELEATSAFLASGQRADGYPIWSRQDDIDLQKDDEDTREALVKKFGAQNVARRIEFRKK

Compound: [O-][N+](C(C1=C(C(O)=C2)NC(C(C=C3)=CC=C3Cl)C4C1C=CC4)=C2Cl)=O
Assay: melting temperature shift (compound 7 minus DMSO); higher = compound stabilises the protein
Details: 10 µM
Experimental: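 Thermal proteome profiling (TMT mass spectrometry) in intact DAOY medulloblastoma cells or DAOY lysates treated with 10 µM compound 7 or DMSO, heated at 10 temperatures from 40.5 to 73.8 °C for 3 min. Melting curves were fitted with the Bioconductor TPP package, and the melting point difference between compound and vehicle is reported per protein (single curve per condition).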

[1] = system: DAOY cell lysate, treatment time: 20 min, 4 °C
[2] = system: intact DAOY cells, treatment time: 90 min, 37 °C

| Target | melting temperature shift [1] [°C] | melting temperature shift [2] [°C] |
| --- | --- | --- |
| ATXN10 (UniProt Q9UBB4) | -0.258 | -0.933 |
| UniProt Q8NAM6 |  | 1.86 |
| TRIM32 (UniProt Q13049) | -1.44 | 0.345 |
| UniProt O14757 | 0.222 | -0.598 |
| SIGMAR1 (UniProt Q99720) | 3.32 |  |
| IGF1R (UniProt P08069) | 2.65 | -0.0133 |
| MB21D1 (UniProt Q8N884) | -1.21 | -1.69 |
| TANGO6 (UniProt Q9C0B7) |  | -0.248 |
| PTCD3 (UniProt Q96EY7) | -0.721 | -1.22 |
| UniProt Q9Y5E7 | -1.07 |  |
| UniProt Q9NSY0 |  | 1.52 |
| FXR1 (UniProt P51114) | 0.874 | -0.316 |
| GTSE1 (UniProt Q9NYZ3) | 1.12 |  |
| UniProt P35226 | -0.101 | 1.34 |
| UniProt O95070 |  | -1.23 |
| UniProt O00391 |  | 2.66 |
| UniProt Q9H0W5 | -0.273 |  |
| TMEM263 (UniProt Q8WUH6) | -1.66 | -0.999 |
| UniProt Q92834 |  | -3.37 |
| ARL2 (UniProt P36404) | -0.23 | -1.98 |
| ILK (UniProt Q13418) | 0.104 | -0.642 |
| FAM129B (UniProt Q96TA1) | -0.262 | -0.363 |
| PRPF18 (UniProt Q99633) | 1.46 |  |
| LANCL1 (UniProt O43813) | -0.313 | 0.176 |
| UniProt Q9UHD8 | -0.224 | -0.02 |

| Target | melting temperature shift [1] [°C] | melting temperature shift [2] [°C] |
| --- | --- | --- |
| OTUB1 (UniProt Q96FW1) | -0.751 | -0.0029 |
| PANK3 (UniProt Q9H999) | -0.61 | -1.45 |
| UniProt Q9UPW6 | -0.336 |  |
| INF2 (UniProt Q27J81) | -0.223 | 0.378 |
| UNK (UniProt Q9C0B0) | -0.341 | 0.886 |
| CCT7 (UniProt Q99832) | -0.439 | -0.137 |
| UniProt Q9UBR5 | 2.93 |  |
| IPO13 (UniProt O94829) | 1.09 |  |
| C2CD2 (UniProt Q9Y426) |  | 2.66 |
| GSTM3 (UniProt P21266) | -0.882 | 0.108 |
| CYP51A1 (UniProt Q16850) | 2.36 | -0.336 |
| TNFAIP3 (UniProt P21580) |  | -1.65 |
| UniProt Q9NRP0 | 2.51 | -0.292 |
| COX5A (UniProt P20674) | -0.773 | 0.588 |
| UniProt P52790 |  | -0.386 |
| HIBCH (UniProt Q6NVY1) | -0.252 | -0.683 |
| LDHA (UniProt P00338) | -0.694 | -0.0315 |
| SLC2A1 (UniProt P11166) | 2.5 |  |
| UniProt O15394 | -2.11 | -0.345 |
| UniProt Q01081 | 1.78 | -1.08 |
| PROCR (UniProt Q9UNN8) | 0.84 | -0.535 |
| TERF2IP (UniProt Q9NYB0) | -0.304 | -0.599 |
| VAV2 (UniProt P52735) | 0.0206 | 0.484 |
| UniProt P52815 | -1.62 | -0.0312 |

Exported with tabs: part of the list above.
Target	melting temperature shift [1] [°C]	melting temperature shift [2] [°C]
INF2 (UniProt Q27J81)	-0.223	0.378
UNK (UniProt Q9C0B0)	-0.341	0.886
CCT7 (UniProt Q99832)	-0.439	-0.137
UniProt Q9UBR5	2.93	
